Source: patent publication US20210005278A1, “SYSTEMS AND METHODS FOR PREDICTIVE NETWORK MODELING FOR COMPUTATIONAL SYSTEMS, BIOLOGY AND DRUG TARGET DISCOVERY” (ARIZONA BOARD OF REGENTS ON BEHALF OF THE UNIVERSITY OF …, priority 2018, published 2021)
Entries after “also recorded” stand apart in the source; their conditions may differ.

Assays:
SGBS cells = experiment: Adipogenic differentiation assay (Oil Red O) in SGBS cells; type: cell-based, human; settings: inhibitor added at day 0 of differentiation, 10 nM-10 uM
Procedure: For adipogenic differentiation SGBS cells were grown to confluence and subjected to a two-step differentiation process. […] Afterwards, cells were exposed to DMEM/F12 supplemented with 0.01 mg/mL of transferrin, […] of insulin, 100 nM cortisol, and 0.2 nM 3,3′,5-Triiodo-L-thyronine for additional 12 days. HMCL-7304 cells were differentiated in presence of SKMC differentiation medium (PromoCell) for 4-5 days before glucose uptake was performed. For quantification of the effect on adipogenic differentiation, chemical inhibitors for HMGCR (atorvastatin), FDPS (alendronate), and SQLE (terbinafine) were added at day 0 of differentiation at different concentrations (10 nM, 100 nM, 1 uM, 10 uM.). Differentiation quantification was performed with Oil Red 0. Differentiated SGBS cells were fixed with 10% formalin for 10 minutes at room temperature. After washing with 60% isopropanol, samples were incubated in Oil Red 0 (Sigma-Aldrich) for 10 minutes at room temperature. Oil Red 0 was eluted with 100% isopropanol for 10 minutes. The solution was then transferred into a 96-well plate and absorbance measured at 500nm.

[1] = system: human adipocytes (differentiated SGBS cells); experiment: Insulin mediated glucose uptake assay in mature human adipocytes (differentiated SGBS); type: cell-based; settings: 24 hours pretreatment 10 nM-10 uM, 100 nM insulin stimulation
Procedure: (§1) For adipogenic differentiation SGBS cells were grown to confluence and subjected to a two-step differentiation process. […] Afterwards, cells were exposed to DMEM/F12 supplemented with 0.01 mg/mL of transferrin, […] of insulin, 100 nM cortisol, and 0.2 nM 3,3′,5-Triiodo-L-thyronine for additional 12 days. HMCL-7304 cells were differentiated in presence of SKMC differentiation medium (PromoCell) for 4-5 days before glucose uptake was performed. Differentiated SGBS or HMCL-7304 cells were pretreated for 24 hours with different concentrations (10 nM, 100 nM, 1 uM, 10 uM) of the chemical inhibitors for HMGCR (atorvastatin), FDPS (alendronate), and SQLE (terbinafine). After the preincubation, the cells were starved for 2 hours prior to 30 minutes of 100 nM insulin stimulation at 37 degrees. […] The cells were then washed with PBS, harvested in 300 uL of M-PER lysis buffer (ThermoFisher), and then added to scintillation vials containing 4.75 mL of scintillation fluid (Perk Elmer). Radioactive counts were determined with a scintillation counter (Model ID: Beckman LS6500). Excess samples were subjected to BCA assay for protein quantification and normalization of radioactive counts. All samples were represented as fold change compared to the unstimulated (no insulin) condition.

human SKMCs (HMCL-7304) = experiment: Insulin mediated glucose uptake assay in mature human SKMCs (HMCL-7304); type: cell-based; settings: human SKMCs (HMCL-7304 myotubes); 24 hours pretreatment 10 nM-10 uM; 100 nM insulin stimulation
Procedure: as §1

SMILES | differentiation efficiency (adipogenesis, Oil Red O absorbance at 500 nm) (SGBS cells) | insulin mediated glucose uptake [1] | insulin mediated glucose uptake (human SKMCs (HMCL-7304))
NCCCC(O)(P(=O)(O)O)P(=O)(O)O [alendronate] | only HMGCR inhibition demonstrates a detectable decrease | decrease insulin mediated glucose uptake | 
CC(C)c1c(C(=O)Nc2ccccc2)c(-c2ccccc2)c(-c2ccc(F)cc2)n1CC[C@@H](O)C[C@@H](O)CC(=O)O [atorvastatin] | detectable decrease | decrease insulin mediated glucose uptake | inhibits; also recorded: affected
